The record followed here is the supplement of paper PMC6411743.

Sequences of proteins named here, by UniProt entry; tags and fusion partners are left off. A change or cut given only in a name is not applied to a line headed by its entry.
UniProt Q9H1Y0: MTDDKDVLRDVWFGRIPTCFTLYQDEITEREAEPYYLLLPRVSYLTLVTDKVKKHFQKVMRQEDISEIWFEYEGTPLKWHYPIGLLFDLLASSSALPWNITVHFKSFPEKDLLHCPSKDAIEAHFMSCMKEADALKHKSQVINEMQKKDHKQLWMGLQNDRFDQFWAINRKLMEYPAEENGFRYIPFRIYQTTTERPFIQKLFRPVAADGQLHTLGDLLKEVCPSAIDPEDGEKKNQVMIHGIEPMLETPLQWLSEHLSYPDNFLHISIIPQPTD
UniProt Q9H4E7, whole entry: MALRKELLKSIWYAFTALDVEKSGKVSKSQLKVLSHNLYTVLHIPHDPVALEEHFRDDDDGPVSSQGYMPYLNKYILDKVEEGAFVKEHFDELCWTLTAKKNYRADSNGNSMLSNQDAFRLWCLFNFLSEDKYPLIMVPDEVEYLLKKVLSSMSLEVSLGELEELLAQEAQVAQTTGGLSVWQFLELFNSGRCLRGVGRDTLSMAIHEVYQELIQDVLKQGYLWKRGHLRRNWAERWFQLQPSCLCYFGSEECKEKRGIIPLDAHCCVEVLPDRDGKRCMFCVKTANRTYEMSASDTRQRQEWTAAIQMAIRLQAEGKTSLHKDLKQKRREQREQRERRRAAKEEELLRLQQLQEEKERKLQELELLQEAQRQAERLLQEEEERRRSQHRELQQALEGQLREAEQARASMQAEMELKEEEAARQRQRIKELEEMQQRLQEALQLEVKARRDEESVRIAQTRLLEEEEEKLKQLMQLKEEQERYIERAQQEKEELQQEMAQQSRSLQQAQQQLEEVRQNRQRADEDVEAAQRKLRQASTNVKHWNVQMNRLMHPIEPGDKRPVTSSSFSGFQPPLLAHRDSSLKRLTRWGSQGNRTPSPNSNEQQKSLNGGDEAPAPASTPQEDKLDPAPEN
UniProt Q9H1P3, whole entry: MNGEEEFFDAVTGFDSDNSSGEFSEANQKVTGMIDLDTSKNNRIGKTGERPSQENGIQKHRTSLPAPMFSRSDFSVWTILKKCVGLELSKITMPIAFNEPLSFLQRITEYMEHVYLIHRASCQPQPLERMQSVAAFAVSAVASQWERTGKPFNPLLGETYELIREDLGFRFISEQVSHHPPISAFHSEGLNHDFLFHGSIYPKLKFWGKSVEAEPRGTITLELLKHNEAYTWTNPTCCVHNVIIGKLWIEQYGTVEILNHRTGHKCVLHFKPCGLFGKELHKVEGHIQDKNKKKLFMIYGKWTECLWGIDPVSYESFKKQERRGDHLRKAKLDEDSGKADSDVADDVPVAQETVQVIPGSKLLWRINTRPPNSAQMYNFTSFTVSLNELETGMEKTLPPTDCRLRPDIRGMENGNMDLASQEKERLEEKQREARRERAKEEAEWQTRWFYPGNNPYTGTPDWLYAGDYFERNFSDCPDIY
UniProt Q9HBE1: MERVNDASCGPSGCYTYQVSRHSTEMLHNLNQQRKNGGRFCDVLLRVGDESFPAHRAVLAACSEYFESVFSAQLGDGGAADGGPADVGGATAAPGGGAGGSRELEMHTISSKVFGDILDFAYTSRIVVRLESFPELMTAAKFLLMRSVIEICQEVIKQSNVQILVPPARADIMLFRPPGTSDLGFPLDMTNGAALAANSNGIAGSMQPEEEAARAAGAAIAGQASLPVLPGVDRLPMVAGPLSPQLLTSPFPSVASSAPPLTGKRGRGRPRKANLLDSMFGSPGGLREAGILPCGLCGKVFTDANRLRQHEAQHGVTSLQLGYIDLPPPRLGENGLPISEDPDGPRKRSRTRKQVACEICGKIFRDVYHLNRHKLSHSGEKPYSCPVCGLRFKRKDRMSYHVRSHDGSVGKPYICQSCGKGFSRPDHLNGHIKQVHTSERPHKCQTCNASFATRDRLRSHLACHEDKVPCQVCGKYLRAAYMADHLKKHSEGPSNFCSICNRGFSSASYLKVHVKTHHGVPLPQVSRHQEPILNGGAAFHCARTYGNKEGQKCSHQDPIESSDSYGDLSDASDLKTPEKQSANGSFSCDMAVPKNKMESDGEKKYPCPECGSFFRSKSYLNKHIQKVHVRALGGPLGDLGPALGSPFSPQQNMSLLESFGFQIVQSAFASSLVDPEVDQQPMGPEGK
UniProt Q9H0L4: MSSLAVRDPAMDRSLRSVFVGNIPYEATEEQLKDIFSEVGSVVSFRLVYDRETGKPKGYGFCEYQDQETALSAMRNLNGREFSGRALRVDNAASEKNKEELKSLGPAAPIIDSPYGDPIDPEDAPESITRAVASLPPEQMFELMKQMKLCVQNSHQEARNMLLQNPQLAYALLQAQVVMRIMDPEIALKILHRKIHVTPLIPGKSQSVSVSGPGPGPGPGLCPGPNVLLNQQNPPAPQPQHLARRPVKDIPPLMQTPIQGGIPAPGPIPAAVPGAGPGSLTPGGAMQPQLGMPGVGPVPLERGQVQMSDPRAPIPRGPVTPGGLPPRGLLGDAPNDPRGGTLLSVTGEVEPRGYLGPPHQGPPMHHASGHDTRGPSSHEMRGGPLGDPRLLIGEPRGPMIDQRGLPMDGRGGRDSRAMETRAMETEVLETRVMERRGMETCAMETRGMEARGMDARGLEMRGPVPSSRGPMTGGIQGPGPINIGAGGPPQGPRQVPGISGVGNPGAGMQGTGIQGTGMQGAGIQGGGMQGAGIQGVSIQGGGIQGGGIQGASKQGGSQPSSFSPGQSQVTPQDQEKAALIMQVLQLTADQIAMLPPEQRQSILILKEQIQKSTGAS
UniProt Q9H269: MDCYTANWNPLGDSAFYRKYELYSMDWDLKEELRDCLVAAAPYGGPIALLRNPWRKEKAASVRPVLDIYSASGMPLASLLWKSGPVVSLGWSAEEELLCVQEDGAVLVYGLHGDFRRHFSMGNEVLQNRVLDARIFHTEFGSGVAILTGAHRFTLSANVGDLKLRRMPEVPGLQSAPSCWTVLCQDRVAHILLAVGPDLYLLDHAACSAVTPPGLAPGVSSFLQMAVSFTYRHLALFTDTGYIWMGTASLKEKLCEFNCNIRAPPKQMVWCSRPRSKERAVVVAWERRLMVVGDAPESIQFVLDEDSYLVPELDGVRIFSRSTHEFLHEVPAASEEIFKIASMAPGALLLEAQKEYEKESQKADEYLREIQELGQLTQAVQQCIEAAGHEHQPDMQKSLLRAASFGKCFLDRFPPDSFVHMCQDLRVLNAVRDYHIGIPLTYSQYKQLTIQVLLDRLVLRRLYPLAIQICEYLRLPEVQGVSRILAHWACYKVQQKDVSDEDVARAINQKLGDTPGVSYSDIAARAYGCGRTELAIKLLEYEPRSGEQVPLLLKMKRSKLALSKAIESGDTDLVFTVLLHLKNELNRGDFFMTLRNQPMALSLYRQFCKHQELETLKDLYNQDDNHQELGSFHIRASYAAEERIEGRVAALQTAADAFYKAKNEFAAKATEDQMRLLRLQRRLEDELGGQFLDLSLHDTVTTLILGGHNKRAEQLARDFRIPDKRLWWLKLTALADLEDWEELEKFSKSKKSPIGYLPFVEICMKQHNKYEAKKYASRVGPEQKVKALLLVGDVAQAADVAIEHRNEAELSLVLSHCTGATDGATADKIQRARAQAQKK
UniProt Q9BZM5, whole entry: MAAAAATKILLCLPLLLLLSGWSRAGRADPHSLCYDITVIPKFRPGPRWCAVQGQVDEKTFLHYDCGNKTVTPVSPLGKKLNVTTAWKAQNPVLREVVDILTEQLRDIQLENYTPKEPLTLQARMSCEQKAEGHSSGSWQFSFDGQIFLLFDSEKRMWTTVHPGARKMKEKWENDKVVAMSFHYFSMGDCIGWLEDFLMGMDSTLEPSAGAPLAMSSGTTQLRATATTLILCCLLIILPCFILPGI
UniProt Q9H2J4: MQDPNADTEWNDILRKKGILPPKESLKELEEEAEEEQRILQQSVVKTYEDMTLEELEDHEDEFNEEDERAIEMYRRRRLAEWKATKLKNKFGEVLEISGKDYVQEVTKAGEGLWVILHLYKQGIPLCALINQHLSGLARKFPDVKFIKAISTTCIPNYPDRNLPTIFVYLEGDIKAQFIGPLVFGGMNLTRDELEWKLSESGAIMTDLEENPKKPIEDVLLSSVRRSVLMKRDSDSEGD
UniProt Q9C0D5: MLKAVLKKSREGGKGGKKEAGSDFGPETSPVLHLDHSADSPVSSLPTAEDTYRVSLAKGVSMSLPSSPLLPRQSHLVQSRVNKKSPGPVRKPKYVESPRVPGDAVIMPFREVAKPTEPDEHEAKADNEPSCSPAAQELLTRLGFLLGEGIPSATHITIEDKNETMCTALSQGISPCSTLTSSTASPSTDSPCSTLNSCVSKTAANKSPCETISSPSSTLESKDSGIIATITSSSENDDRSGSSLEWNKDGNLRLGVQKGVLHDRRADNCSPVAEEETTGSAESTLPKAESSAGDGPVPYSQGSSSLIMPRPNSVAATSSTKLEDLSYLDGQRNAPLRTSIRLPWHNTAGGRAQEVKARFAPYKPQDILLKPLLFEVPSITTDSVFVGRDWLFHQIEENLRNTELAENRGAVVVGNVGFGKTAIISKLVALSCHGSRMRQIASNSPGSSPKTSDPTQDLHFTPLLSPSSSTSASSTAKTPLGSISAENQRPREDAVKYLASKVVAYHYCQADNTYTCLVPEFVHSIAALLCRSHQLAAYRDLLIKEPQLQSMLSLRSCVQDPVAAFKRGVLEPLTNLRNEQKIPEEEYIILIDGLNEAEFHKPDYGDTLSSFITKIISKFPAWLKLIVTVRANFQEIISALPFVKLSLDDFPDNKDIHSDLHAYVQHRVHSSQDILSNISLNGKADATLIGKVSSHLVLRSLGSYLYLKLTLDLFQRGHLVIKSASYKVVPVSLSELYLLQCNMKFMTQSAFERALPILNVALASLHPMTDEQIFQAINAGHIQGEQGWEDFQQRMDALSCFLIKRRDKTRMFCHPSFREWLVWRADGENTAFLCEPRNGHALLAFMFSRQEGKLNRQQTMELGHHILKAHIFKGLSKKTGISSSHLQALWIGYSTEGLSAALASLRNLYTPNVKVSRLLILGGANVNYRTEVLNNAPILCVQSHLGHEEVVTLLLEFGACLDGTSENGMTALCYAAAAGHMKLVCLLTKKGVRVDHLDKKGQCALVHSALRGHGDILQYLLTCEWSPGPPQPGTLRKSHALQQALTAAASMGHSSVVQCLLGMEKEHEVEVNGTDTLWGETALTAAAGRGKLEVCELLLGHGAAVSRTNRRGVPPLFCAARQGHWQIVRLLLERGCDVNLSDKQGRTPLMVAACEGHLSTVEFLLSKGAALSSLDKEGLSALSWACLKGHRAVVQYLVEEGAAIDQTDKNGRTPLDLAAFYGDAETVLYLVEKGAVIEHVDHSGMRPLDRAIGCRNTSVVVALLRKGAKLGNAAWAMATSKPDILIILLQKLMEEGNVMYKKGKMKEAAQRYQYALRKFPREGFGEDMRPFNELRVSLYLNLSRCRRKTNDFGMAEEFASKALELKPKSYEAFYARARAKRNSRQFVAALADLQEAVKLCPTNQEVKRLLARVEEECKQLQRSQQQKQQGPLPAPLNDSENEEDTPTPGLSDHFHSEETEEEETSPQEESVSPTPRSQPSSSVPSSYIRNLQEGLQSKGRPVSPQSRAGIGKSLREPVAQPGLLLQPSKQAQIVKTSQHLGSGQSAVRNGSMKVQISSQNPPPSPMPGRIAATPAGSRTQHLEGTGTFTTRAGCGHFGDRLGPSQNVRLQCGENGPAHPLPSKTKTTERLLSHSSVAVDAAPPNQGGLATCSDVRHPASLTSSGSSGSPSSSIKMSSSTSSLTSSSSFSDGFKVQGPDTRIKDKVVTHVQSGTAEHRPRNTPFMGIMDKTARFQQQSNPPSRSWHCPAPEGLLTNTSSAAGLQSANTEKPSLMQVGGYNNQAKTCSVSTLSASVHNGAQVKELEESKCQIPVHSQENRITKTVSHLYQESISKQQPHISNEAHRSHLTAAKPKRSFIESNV
UniProt Q9HAT2: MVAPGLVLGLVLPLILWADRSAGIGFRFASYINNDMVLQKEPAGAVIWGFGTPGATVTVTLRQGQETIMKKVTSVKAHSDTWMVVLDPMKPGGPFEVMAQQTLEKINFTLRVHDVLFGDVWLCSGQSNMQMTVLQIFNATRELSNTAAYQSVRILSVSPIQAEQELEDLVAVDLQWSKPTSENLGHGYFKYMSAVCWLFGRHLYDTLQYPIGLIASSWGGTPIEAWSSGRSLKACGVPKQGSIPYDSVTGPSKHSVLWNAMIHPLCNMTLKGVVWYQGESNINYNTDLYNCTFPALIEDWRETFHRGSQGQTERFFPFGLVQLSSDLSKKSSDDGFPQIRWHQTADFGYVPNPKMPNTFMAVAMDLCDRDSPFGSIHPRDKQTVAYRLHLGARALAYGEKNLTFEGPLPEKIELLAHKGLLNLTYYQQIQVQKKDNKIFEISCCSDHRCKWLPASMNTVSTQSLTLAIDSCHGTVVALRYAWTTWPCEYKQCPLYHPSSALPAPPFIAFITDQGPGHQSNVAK

± gives the standard deviation of the averaged measurements. Only a part is listed here, and it is no random draw. Small differences around the control level are noise.

Compound in this assay: Nc1ncnc2c1ncn2[C@@H]1O[C@H](COP(=O)(O)OP(=O)(O)NP(=O)(O)O)[C@@H](O)[C@H]1O [adenylyl imidodiphosphate]
Description: NP40-soluble protein abundance relative to vehicle (solubility fold change) (ratio); higher = more soluble protein in presence of AMP-PNP. Put shortly: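 Across three independent experiments, values are fold changes against the detergent-processed vehicle for each replicate, based on vsn-normalised intensities. The samples were Jurkat crude lysate treated with eight concentrations (0.1 to 10 mM) for 10 min at room temperature and then 3 min at 37 °C. Lysate was solubilised with 0.8% NP40 and benzonase, ultracentrifuged, and the supernatant analysed by TMT-labelled LC-MS/MS.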

PARVG (UniProt Q9HBI0): the NP40-soluble protein abundance (concentration: 0.1mM) worked out at 0.9763 ± 0.0097 and the NP40-soluble protein abundance (concentration: 0.5mM) amounted to 0.93 ± 0.0096.
On to ATG5 (UniProt Q9H1Y0), for which the NP40-soluble protein abundance amounted to 0.999 ± 0.047 (concentration: 0.1mM) and 1.03 ± 0.031 (concentration: 0.5mM).
On the same counts, the results for DEF6 (UniProt Q9H4E7) are 0.999 ± 0.013 and 1.01 ± 0.018.
In the case of UniProt Q9H1P3 and related entries, the NP40-soluble protein abundance stood at 0.99 ± 0.0097 (concentration: 0.1mM) and 1.01 ± 0.025 (concentration: 0.5mM).
Take UniProt Q9H2U1 and related entries: the NP40-soluble protein abundance is, setting by setting: (concentration: 0.1mM) 1.02 ± 0.017; (concentration: 0.5mM) 1.05 ± 0.028.
UniProt Q9NPA0: the NP40-soluble protein abundance by setting is: (concentration: 0.1mM) 1.04 ± 0.045; (concentration: 0.5mM) 1.03 ± 0.042.
On the same counts, the results for “UniProt Q9H2D6-5|Q9H2D6 and related entries” are 0.973 ± 0.022 and 0.967 ± 0.026.
On the same counts, the results for UniProt Q9HBE1 and related entries are 1.03 ± 0.044 and 1.004 ± 0.0033.
As to CSTF2T (UniProt Q9H0L4), the NP40-soluble protein abundance (concentration: 0.1mM) was determined as 1 ± 0.041 and the NP40-soluble protein abundance (concentration: 0.5mM) was 0.985 ± 0.047.
For VPS16 (UniProt Q9H269), in that order: 1.04 ± 0.022 and 0.989 ± 0.057.
As for ULBP2 (UniProt Q9BZM5), the NP40-soluble protein abundance is, setting by setting: (concentration: 0.1mM) 1.03 ± 0.063; (concentration: 0.5mM) 0.9974 ± 0.0075.
For PDCL3 (UniProt Q9H2J4), in that order: 0.988 ± 0.015 and 0.976 ± 0.012.
For DSN1 (UniProt Q9H410), in that order: 0.979 ± 0.024 and 0.975 ± 0.033.
In the case of UniProt Q9C0D5 and related entries, the NP40-soluble protein abundance reads like this: (concentration: 0.1mM) 0.934 ± 0.014; (concentration: 0.5mM) 0.9621 ± 0.0076.
With UniProt Q9HAT2 and related entries, the NP40-soluble protein abundance by setting is: (concentration: 0.1mM) 0.985 ± 0.042; (concentration: 0.5mM) 1.035 ± 0.0034.
Consider UniProt Q9HCJ3 and related entries, for which the NP40-soluble protein abundance by setting is: (concentration: 0.1mM) 0.9845 ± 0.0035; (concentration: 0.5mM) 0.969 ± 0.021.
On the same counts, the results for UniProt Q9HDC9 are 0.994 ± 0.015 and 0.9611 ± 0.0083.
On the same counts, the results for UniProt Q9H8Y8 and related entries are 0.966 ± 0.031 and 1.01 ± 0.047.
Consider PNN (UniProt Q9H307), for which the NP40-soluble protein abundance is, setting by setting: (concentration: 0.1mM) 0.988 ± 0.11; (concentration: 0.5mM) 0.984 ± 0.17.
On the same counts, the results for VPS33B (UniProt Q9H267) are 0.984 ± 0.016 and 0.95 ± 0.056.
For UniProt Q9H6K5 and related entries, in that order: 0.998 ± 0.013 and 0.974 ± 0.032.
On the same counts, the results for UniProt Q9HCC0-2 are 0.97 ± 0.016 and 0.9874 ± 0.0025.
